The record followed here is publication PMC3082224.

Amino acid sequences for entries named in this document (tags omitted). A change or cut given only in a name is not applied to a line headed by its entry.
UniProt P40763: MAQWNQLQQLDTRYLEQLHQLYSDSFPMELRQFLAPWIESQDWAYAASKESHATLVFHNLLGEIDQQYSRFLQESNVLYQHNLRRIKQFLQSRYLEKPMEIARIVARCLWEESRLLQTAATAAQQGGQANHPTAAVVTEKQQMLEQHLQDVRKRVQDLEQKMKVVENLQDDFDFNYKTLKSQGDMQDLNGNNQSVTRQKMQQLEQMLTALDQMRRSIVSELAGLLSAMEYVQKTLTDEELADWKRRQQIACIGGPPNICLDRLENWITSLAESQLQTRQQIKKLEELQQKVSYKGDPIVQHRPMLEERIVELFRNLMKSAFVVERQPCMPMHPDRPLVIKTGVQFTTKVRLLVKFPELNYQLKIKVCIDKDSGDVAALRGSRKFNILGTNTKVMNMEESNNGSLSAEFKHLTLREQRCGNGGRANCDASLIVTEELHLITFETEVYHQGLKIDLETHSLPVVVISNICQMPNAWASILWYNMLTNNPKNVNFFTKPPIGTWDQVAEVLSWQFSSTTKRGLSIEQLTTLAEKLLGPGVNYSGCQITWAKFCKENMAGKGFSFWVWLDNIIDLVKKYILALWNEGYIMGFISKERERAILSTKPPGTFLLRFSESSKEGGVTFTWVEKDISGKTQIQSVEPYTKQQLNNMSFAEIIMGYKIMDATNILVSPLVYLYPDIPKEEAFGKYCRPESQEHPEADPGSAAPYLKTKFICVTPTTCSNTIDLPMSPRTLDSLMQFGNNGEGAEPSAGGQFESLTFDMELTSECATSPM
UniProt P19838: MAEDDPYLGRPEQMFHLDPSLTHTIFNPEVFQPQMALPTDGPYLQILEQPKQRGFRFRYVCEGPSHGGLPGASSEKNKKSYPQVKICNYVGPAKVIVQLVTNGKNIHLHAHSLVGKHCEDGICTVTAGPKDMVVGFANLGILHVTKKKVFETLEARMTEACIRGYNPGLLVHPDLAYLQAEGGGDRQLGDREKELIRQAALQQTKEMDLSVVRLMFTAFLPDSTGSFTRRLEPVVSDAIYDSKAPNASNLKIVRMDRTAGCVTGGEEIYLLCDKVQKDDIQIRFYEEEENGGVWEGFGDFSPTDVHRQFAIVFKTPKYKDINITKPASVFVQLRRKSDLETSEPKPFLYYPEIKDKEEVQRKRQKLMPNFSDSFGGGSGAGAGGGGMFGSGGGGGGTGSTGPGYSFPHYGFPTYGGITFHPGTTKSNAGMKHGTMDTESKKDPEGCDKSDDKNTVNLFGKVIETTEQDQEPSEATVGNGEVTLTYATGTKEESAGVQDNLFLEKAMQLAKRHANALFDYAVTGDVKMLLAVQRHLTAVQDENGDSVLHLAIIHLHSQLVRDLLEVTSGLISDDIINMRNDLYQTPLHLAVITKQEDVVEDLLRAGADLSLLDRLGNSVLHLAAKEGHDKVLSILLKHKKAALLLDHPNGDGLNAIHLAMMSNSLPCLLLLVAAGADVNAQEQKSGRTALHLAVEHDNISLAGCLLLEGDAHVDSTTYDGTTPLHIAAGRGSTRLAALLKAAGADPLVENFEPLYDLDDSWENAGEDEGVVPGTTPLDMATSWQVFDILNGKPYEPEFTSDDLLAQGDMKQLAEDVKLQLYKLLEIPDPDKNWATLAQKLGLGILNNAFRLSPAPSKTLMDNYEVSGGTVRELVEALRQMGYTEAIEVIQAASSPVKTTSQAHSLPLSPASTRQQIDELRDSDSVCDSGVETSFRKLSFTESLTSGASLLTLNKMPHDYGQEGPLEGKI

This test deals with activated STAT3 (phospho-STAT3) trapped on the biotinylated STAT3-decoy ODN (human (endogenous in SW 480)) (UniProt P40763). The test is described as follows: pull-down; biotinylated STAT3-decoy ODN with cytoplasmic and nuclear fractions of untreated or IL-6-treated (50 ng/ml) SW 480 cells, avidin-Sepharose beads; western blot with NF-κB antibody.

These are yes or no findings as the source states them, for the method shown. Binding seen in cells or lysates may run through a third protein. Some binding calls cover weakened binding; strength is not graded here.

For “NF-κB (from UniProt P19838 1-433; Q04206 1-551) (complex)”, the binding entry is “binds”.
